Patent US8815847B2, “[1,2,4]thiadiazine 1,1-dioxide compounds for lowering serum uric acid” (Anadys Pharmaceuticals, Inc., priority 2011, dated 2014)

System: serum uric acid
Settings: single 800 mg oral dose, all six patients receiving the compound

Compound: CS(=O)(=O)Nc1ccc2c(c1)S(=O)(=O)N=C(C1=C(O)[C@@H]3[C@H]4CC[C@H](C4)[C@@H]3N(Cc3ccc(F)cc3)C1=O)N2 [Example 2, N-{3-[(1R,2S,7R,8S)-3-(4-Fluoro-benzyl)-6-hydroxy-4-oxo-3-aza-tricyclo[6.2.1.0^2,7]undec-5-en-5-yl]-1,1-dioxo-1,4-dihydro-1λ^6-benzo[1,2,4]thiadiazin-7-yl}-methanesulfonamide]
- decreases in uric acid from the baseline to the end of the trial: 24-40%
